Measured values reported in publication PMC6015050.
These are yes or no findings as the source states them, for the method shown. Binding seen in cells or lysates may run through a third protein. A yes stands for co-enrichment or nearness to the bait. Other partners may have been found. Sequences can lack the tags named with a protein.

Amino acid sequences for entries named in this document (tags omitted).
UniProt P09144: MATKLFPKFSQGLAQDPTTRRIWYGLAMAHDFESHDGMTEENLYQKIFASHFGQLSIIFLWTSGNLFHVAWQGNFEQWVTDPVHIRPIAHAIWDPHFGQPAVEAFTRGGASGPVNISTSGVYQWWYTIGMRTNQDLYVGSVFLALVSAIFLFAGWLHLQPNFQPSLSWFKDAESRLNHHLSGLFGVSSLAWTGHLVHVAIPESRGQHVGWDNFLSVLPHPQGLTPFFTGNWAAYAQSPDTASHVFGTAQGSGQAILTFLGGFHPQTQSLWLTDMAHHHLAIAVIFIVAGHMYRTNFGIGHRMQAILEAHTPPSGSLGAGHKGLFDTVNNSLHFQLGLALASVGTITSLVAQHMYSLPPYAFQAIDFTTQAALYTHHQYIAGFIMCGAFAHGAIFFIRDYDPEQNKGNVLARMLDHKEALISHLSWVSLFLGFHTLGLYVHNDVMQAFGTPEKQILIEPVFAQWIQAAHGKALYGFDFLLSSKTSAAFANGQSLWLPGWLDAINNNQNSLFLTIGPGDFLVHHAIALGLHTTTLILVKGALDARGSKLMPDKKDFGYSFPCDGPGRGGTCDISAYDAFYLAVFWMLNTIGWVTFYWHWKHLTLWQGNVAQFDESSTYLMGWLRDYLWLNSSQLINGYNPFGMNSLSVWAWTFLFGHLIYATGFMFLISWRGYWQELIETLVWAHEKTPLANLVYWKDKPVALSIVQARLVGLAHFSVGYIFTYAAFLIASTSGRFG

Key:
[1] = biological target: T1, Ycf3 fused with HA-tag at the C-terminus (Ycf3-HA) (C. reinhardtii) (UniProt O20031); experiment: affinity purification with mass spectrometry; affinity-purified Ycf3-HA preparation, gel bands digested with trypsin, LC-MS/MS
T1 sequence: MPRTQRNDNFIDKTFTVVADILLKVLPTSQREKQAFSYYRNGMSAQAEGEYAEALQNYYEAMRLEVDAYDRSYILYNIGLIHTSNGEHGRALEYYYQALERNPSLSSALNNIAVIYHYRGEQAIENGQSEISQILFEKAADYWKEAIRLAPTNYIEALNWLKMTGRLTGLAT

[2] = biological target: T2, Ycf4 fused with HA tag at the N-terminus (HA-Ycf4) (C. reinhardtii) (UniProt O20030); experiment: affinity purification with mass spectrometry; affinity-purified HA-Ycf4 preparation, gel bands digested with trypsin, LC-MS/MS
T2 sequence: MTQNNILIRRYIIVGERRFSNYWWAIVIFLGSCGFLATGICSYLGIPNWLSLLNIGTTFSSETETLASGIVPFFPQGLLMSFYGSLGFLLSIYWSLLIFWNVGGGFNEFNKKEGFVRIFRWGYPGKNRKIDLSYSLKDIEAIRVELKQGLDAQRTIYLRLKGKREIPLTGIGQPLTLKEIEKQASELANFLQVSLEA

PsaB (from UniProt P09144 1-735)
binding [1]: binds
binding [2]: binds
